Results deposited as PubChem BioAssay AID652243 (Drosophila RNAi Screening Center, 2013).
Screen: 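Knock-downs that decrease or increase androgen receptor reporter signal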 (primary screen). System: Drosophila S2R+ cells. Knock-down reagent: long dsRNA against Drosophila genes. Timing: 72 h (48 h, then 24 h hormone). Challenge: synthetic androgen R1881 at 10 nM for 24 h. Detection: 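Firefly light from an androgen-responsive reporter and Renilla control light per well, raw and unnormalised, for each of two replicates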. Scale: firefly reporter light: higher = more light from androgen-responsive reporter; Renilla control light: higher = more constitutive control signal (cell number, transfection). Active means: 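Across duplicate plates, a knock-down whose log firefly/Renilla ratio shifted a set fold down or up from the GFP/LacZ control mean was a hit; the downward cut appears as both 1.5 and 3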. Calls: active = hit: reporter lowered or raised; inactive = no hit.
The deposit covers about 24,000 reagents; this is a random part of those with a known target gene and a result. Of all reagents, 246 (1%) are marked active. 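Plates not normalised; calls are printed but the firefly/Renilla ratio behind them is not deposited; fold cut for lowering reported inconsistently.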 Raw values are not corrected between plates. Names joined by + are all predicted targets of the reagent. Not given: the amount of reagent.

{"Gene":"Obp85a","dsRNA":"DRSC14362","firefly reporter light, replicate 1":1.50e5,"firefly reporter light, replicate 2":1.89e5,"Renilla control light, replicate 1":2.80e6,"Renilla control light, replicate 2":3.03e6,"activity call":"inactive"}
{"Gene":"CG15056","dsRNA":"DRSC19630","firefly reporter light, replicate 1":5.65e5,"firefly reporter light, replicate 2":4.92e5,"Renilla control light, replicate 1":4.19e6,"Renilla control light, replicate 2":3.10e6,"activity call":"inactive"}
{"Gene":"CG6661 + asRNA:CR42871","dsRNA":"DRSC10687","firefly reporter light, replicate 1":7.42e5,"firefly reporter light, replicate 2":7.71e5,"Renilla control light, replicate 1":1.66e6,"Renilla control light, replicate 2":1.58e6,"activity call":"inactive"}
{"Gene":"GstE2","dsRNA":"DRSC06672","firefly reporter light, replicate 1":46070,"firefly reporter light, replicate 2":61146,"Renilla control light, replicate 1":6.77e5,"Renilla control light, replicate 2":6.77e5,"activity call":"inactive"}
{"Gene":"GstE2","dsRNA":"DRSC29733","firefly reporter light, replicate 1":4.20e5,"firefly reporter light, replicate 2":3.72e5,"Renilla control light, replicate 1":1.13e6,"Renilla control light, replicate 2":1.18e6,"activity call":"inactive"}
{"Gene":"CG14488","dsRNA":"DRSC06460","firefly reporter light, replicate 1":42621,"firefly reporter light, replicate 2":57644,"Renilla control light, replicate 1":8.45e5,"Renilla control light, replicate 2":8.45e5,"activity call":"inactive"}
{"Gene":"sad","dsRNA":"DRSC16630","firefly reporter light, replicate 1":1.10e5,"firefly reporter light, replicate 2":1.71e5,"Renilla control light, replicate 1":2.30e6,"Renilla control light, replicate 2":2.65e6,"activity call":"inactive"}
{"Gene":"sad","dsRNA":"DRSC28569","firefly reporter light, replicate 1":2.36e5,"firefly reporter light, replicate 2":4.47e5,"Renilla control light, replicate 1":4.42e5,"Renilla control light, replicate 2":1.19e6,"activity call":"inactive"}
{"Gene":"lolal","dsRNA":"DRSC06948","firefly reporter light, replicate 1":1.19e6,"firefly reporter light, replicate 2":1.43e6,"Renilla control light, replicate 1":1.88e6,"Renilla control light, replicate 2":1.72e6,"activity call":"inactive"}
{"Gene":"CG33673","dsRNA":"DRSC38938","firefly reporter light, replicate 1":8.36e5,"firefly reporter light, replicate 2":8.40e5,"Renilla control light, replicate 1":2.23e6,"Renilla control light, replicate 2":1.87e6,"activity call":"inactive"}
{"Gene":"CG31886","dsRNA":"DRSC03248","firefly reporter light, replicate 1":1.57e6,"firefly reporter light, replicate 2":1.28e6,"Renilla control light, replicate 1":2.84e6,"Renilla control light, replicate 2":2.43e6,"activity call":"inactive"}
{"Gene":"CG31886","dsRNA":"DRSC27420","firefly reporter light, replicate 1":2.92e5,"firefly reporter light, replicate 2":3.71e5,"Renilla control light, replicate 1":7.20e5,"Renilla control light, replicate 2":7.56e5,"activity call":"inactive"}
{"Gene":"betaTub85D","dsRNA":"DRSC16910","firefly reporter light, replicate 1":2.10e5,"firefly reporter light, replicate 2":1.97e5,"Renilla control light, replicate 1":2.24e6,"Renilla control light, replicate 2":2.22e6,"activity call":"inactive"}
{"Gene":"betaTub85D","dsRNA":"DRSC25043","firefly reporter light, replicate 1":1.06e6,"firefly reporter light, replicate 2":8.71e5,"Renilla control light, replicate 1":1.16e6,"Renilla control light, replicate 2":9.60e5,"activity call":"inactive"}

An excerpt of the results above, for reference:
{"Gene":"GstE2","dsRNA":"DRSC29733","firefly reporter light, replicate 1":4.20e5,"firefly reporter light, replicate 2":3.72e5,"Renilla control light, replicate 1":1.13e6,"Renilla control light, replicate 2":1.18e6,"activity call":"inactive"}
{"Gene":"CG14488","dsRNA":"DRSC06460","firefly reporter light, replicate 1":42621,"firefly reporter light, replicate 2":57644,"Renilla control light, replicate 1":8.45e5,"Renilla control light, replicate 2":8.45e5,"activity call":"inactive"}
